Some of these results come from one statement about several compounds together.
Key:
macrophage cells = assay: Cell-aqueous-phase distributions of MJ and Fe-MJ; assay type: in vitro ADME, human; conditions: 1×10^5 cells/ml macrophage culture, 0.5 hr incubation
Protocol: Cell-aqueous-phase distributions of MJ and Fe-MJ. After the conversion from MJ to Fe-MJ, aqueous-phase Fe-MJ was obtained by separating the supernatant medium from macrophage cells via the centrifugation with 1500 r.p.m for 5 min. The aliquot of recovered supernatant was subject to CHCl3 extract and HPLC analysis as described above. For measurements of the cell/aqueous-phase partition coefficient of Fe-MJ, Fe-MJ 1.0 μM was incubated into RPMI 1640 medium at 37° C. for half an hour in the presence of various concentrations of macrophage cells. Then the supernatant was separated and analyzed as described above. For the partition coefficient of MJ, prior to the HPLC analysis, a 10-fold ferric citrate excess was added into a MJ-CH3CN solution, followed by a two-hr incubation for the complete conversion from MJ to Fe-MJ. Aqueous-phase and total MJ and Fe-MJ, Ctotal and Cw, respectively, were used to calculate Cv/Cw according to the relationship: Cv/Cw=(Ctotal−Cw)/Cw. The partition coefficient, K was defined according to the following equation: Cv/Cw=K×[Cell], in which [Cell] is the concentration of macrophage cells (cells/ml) and Cv is the amount of lipid-phase MJ or Fe-MJ.

[1] = tested on: macrophages (THP-1 cell line); assay: Fluorescent confocal microscopy of intracellular distribution in macrophages; assay type: cell-based, human; conditions: extracellular compound incubated with macrophages

| Substance | added compound recovered from the aqueous phase (macrophage cells) | time for diffusion to reach equilibrium [1] |
| --- | --- | --- |
| ferric mycobactin J [Fe-MJ] | 70-90% | – |
| gallium-mycobactin J [Ga-MJ] | – | ≤ 20 min |
